This data set in a line: in vitro. The conditions noted are these: human.

For `CN1CCCC1CCO[C@](C)(c1ccccc1)c1ccc(Cl)cc1` (stereo partly specified), the selectivity ratio was 7.1.

The values are drawn from ChEMBL document CHEMBL4368861 (Medchemcomm, 2018).
